{
  "sequences": {"note": "Amino acid sequences for entries named in this document (tags omitted). A change or cut given only in a name is not applied to a line headed by its entry.", "UniProt Q12851": "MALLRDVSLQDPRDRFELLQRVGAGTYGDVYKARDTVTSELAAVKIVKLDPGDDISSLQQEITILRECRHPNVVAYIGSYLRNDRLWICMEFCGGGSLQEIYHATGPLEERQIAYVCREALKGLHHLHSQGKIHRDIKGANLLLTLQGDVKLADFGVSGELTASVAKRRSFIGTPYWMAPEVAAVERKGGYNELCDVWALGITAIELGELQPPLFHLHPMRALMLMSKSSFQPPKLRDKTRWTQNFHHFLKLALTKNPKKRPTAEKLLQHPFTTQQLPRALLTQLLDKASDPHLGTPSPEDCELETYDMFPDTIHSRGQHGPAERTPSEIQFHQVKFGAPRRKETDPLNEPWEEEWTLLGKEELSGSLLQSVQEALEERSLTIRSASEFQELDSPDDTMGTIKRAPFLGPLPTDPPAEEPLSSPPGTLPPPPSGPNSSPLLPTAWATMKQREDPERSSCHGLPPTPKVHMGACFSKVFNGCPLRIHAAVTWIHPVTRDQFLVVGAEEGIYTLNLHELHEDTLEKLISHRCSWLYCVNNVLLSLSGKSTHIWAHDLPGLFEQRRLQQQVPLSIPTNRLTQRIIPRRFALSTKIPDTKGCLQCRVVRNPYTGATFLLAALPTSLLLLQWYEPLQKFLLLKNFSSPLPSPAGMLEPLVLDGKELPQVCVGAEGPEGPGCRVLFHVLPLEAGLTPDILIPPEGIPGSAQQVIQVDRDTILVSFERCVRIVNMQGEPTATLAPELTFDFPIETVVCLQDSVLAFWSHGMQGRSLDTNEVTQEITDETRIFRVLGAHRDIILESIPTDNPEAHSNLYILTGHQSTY"},
  "source": "the supplement of paper PMC12823440",
  "about": "“Inhibitors supercharge kinase turnover through native proteolytic circuits” (Nature, 2025)",
  "note": "Where a name gives a salt, the structure may show the parent alone. Some of the results follow. Hit calls seldom repeat between salt and free forms of one compound.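 Kinases, fused to nanoluciferase, were expressed in K562 cells; luminescence was measured every 4 h from 2 to 18 h as percent of control (DMSO = 100%, positive control = 0%). A time point is decreased if signal falls significantly (2 sigma). Hits were called by the authors by a rule that is not shown; the count of time points alone does not decide it.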",
  "data": [
    {"biological_target": "MAP4K2 (UniProt Q12851)", "assay": "number of time points (of 5) at which kinase-Nluc abundance scored as decreased, DMSO-normalised (count); higher = more persistent destabilization", "details": "K562; 2-18 h", "values": [
      {"molecule": "C=CC(=O)Nc1cccc(Oc2nc(Nc3ccc(N4CCN(C)CC4)cc3OC)ncc2Cl)c1", "note": "(10 µM)", "number of time points": 0},
      {"molecule": "C=CC(=O)Nc1cc(Nc2nccc(-c3cn(C)c4ccccc34)n2)c(OCC(F)(F)F)nc1N(C)CCNC", "note": "[AST5902  (trimesylate)] (2.5 µM)", "number of time points": 0},
      {"molecule": "O=C1C=CC2=C3c4cc(O)c(O)cc4CC3(O)COC2=C1O", "note": "(stereo unspecified) [Hematein] (10 µM)", "number of time points": 0},
      {"molecule": "CCC(F)(F)c1cc(N2CCC(S(C)(=O)=O)CC2)nc2sc(C(N)=O)c(N)c12", "note": "(10 µM)", "number of time points": 0},
      {"molecule": "Cn1cc(C2=C(c3ccc(Cl)cc3Cl)C(=O)NC2=O)c2ccccc21", "note": "(10 µM)", "number of time points": 0},
      {"molecule": "CCOC(=O)c1c(N2CCc3ccc(OC)cc3C2)oc(C=C2C=Nc3ncccc32)c1O", "note": "(10 µM)", "number of time points": 0},
      {"molecule": "O=C(COc1ccc(Cl)cc1)NC1CCC(NC(=O)COc2ccc(Cl)cc2)CC1", "note": "(stereo not drawn) [ISRIB (trans-isomer)] (10 µM)", "number of time points": 0},
      {"molecule": "COc1ccc(CCNCc2ccc(OCc3ccc(Cl)nc3)c(OC)c2)cc1OC", "note": "[SBE13 (Hydrochloride)] (10 µM)", "number of time points": 0},
      {"molecule": "Cc1cccc(CC(=O)N2CCc3c2ccc(-c2cn(C)c4ncnc(N)c24)c3F)n1", "note": "(10 µM)", "number of time points": 0},
      {"molecule": "COc1cc(N2CCC(N3CCN(C)CC3)CC2)ccc1Nc1ncnc(Nc2ccccc2S(=O)(=O)C(C)C)n1", "note": "(10 µM)", "number of time points": 0},
      {"molecule": "CC(C)(Oc1ccc(Cl)cc1)C(=O)Nc1ccc(OCc2ccc(C#N)cc2)cc1", "note": "[AMPK activator 4] (10 µM)", "number of time points": 0},
      {"molecule": "Cc1cc(N2CCOCC2)ccc1Nc1nc(NC2CCCCC2)c2[nH]cnc2n1", "note": "(10 µM)", "number of time points": 0},
      {"molecule": "COC(=O)N1CCN(C2CCC(Nc3nc(Nc4cnn(C)c4)nc4ccc(CC#N)nc34)CC2)CC1", "note": "(stereo unspecified) (10 µM)", "number of time points": 0},
      {"molecule": "CN(C)CCn1cc2cc(NC(=O)c3cccc(C(F)(F)F)n3)c(C(C)(C)O)cc2n1", "note": "(10 µM)", "number of time points": 0},
      {"molecule": "CCOc1cc(N2CCC(O)CC2)ccc1Nc1ncc2c(n1)N(C1CCCC1)CCC(=O)N2C", "note": "(2.5 µM)", "number of time points": 0},
      {"molecule": "CCC[C@H](C)Oc1nc(N)c2[nH]c(=O)n(CCCCCN3CCCCC3)c2n1", "note": "(10 µM)", "number of time points": 0},
      {"molecule": "Fc1ccc(-c2nc3n(c2-c2ccncc2)CCS3)cc1", "note": "(10 µM)", "number of time points": 0},
      {"molecule": "CC(ONC(=O)c1cc(C(F)(F)F)cc(C(F)(F)F)c1)C(=O)Nc1ccc(Cl)cc1", "note": "(stereo unspecified) (2.5 µM)", "number of time points": 0},
      {"molecule": "O=C(Nc1ccccc1C(=O)NC1CCCCNC1=O)c1cc2ccccc2s1", "note": "(stereo unspecified) (10 µM)", "number of time points": 0},
      {"molecule": "N#CC(=C(/N)Sc1ccccc1N)/C(C#N)=C(\\N)Sc1ccccc1N", "note": "(10 µM)", "number of time points": 0},
      {"molecule": "Nc1ccc(O)c(C(=O)O)c1", "note": "[5-Aminosalicylic Acid] (10 µM)", "number of time points": 0},
      {"molecule": "CNCc1ccccc1Sc1cccc2ccccc12", "note": "[IFN alpha-IFNAR-IN-1 (hydrochloride)] (10 µM)", "number of time points": 0},
      {"molecule": "CCCCNc1ncc2c(-c3ccc(F)cc3)nn(CC3CCC(N)CC3)c2n1", "note": "(stereo unspecified) (2.5 µM)", "number of time points": 0},
      {"molecule": "Cc1ncsc1-c1ccc(CNC(=O)[C@@H]2C[C@@H](O)CN2C(=O)[C@@H](NC(=O)COCCOc2ccc(-c3cc(Nc4ccc(OC(F)(F)F)cc4)ncn3)cc2)C(C)(C)C)cc1", "note": "(2.5 µM)", "number of time points": 0},
      {"molecule": "Cn1cnc2c(F)c(Nc3ccc(Br)cc3F)c(C(=O)NOCCO)cc21", "note": "[Binimetinib] (10 µM)", "number of time points": 0},
      {"molecule": "O=C1NC(=O)C(Cc2c[nH]c3c(Cl)cccc23)N1", "note": "(stereo unspecified) [Necroptosis-IN-1] (10 µM)", "number of time points": 0},
      {"molecule": "C=CC(=O)N1CCC(c2ccc(C(N)=O)c(-c3ccc(Oc4ccccc4)cc3)n2)CC1", "note": "[Orelabrutinib] (2.5 µM)", "number of time points": 0},
      {"molecule": "CN1C(=O)N[C@@H](Cc2c[nH]c3c(Cl)cccc23)C1=O", "note": "[Necrostatin 2 (S enantiomer)] (10 µM)", "number of time points": 0},
      {"molecule": "N#Cc1cc(-c2ccnc(Nc3ccc(N4CCOCC4)cc3)n2)ccc1OC1CCOCC1", "note": "(10 µM)", "number of time points": 0},
      {"molecule": "COc1cccc(-c2cc(=O)c3ccccc3o2)c1N", "note": "(10 µM)", "number of time points": 0},
      {"molecule": "Nc1ccc(Sc2nc3ccccc3s2)c(Cl)c1", "note": "[KRAS inhibitor-9] (10 µM)", "number of time points": 0}
    ]}
  ]
}
